Results are given in words; binding and its absence hold for the method and conditions named. Some binding calls cover weakened binding; strength is not graded here. For part of these data: Where a sequence is shown, tags or fusion partners need not be part of it.
Key:
[1] = biological target: KlRad5 (K. lactis Rad5 residues 163–1114) (K. lactis) (UniProt Q6CJM4); test: dynamic light scattering; KlRad5 at 1 mg/ml, 25 °C, 20 mM Tris pH 7.5, 200 mM sodium chloride, 2 mM DTT; read with the crystal structure and negative-stain EM; both purified
[2] = biological target: PCNA, yeast two-hybrid fusion (UniProt P15873); test: two-hybrid; Gal4 activation-domain and DNA-binding-domain plasmids in reporter strains; growth on SC-Trp-Leu-His with or without 3 mM 3-amino-1,2,4-triazole

Amino acid sequences for entries named in this document (tags omitted).
UniProt P15873: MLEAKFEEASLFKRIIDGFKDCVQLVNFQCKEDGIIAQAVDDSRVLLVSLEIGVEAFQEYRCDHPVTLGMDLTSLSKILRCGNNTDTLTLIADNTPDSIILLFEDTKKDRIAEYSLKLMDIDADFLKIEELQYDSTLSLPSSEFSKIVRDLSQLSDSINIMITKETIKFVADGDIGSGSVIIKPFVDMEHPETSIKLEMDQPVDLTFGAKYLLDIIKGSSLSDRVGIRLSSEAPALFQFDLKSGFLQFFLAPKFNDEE

binding [1] | binding [2] | Binder
no binding (tested: 1 mg/ml) | – | KlRad5 (K. lactis Rad5 residues 163–1114) (domain or fragment, UniProt Q6CJM4 163-1114) ESPMSSDKGRNRWSRYIGSIHTMGFATRPTVKPVPIGSRLGFKKSVPKDLPLGKSLQHQHCSHLVRLIDTSQDRELGRMPEDVARILYPLLDYSEQVSLEPYLLINNGKRFSVGDNIYIRIDCYLTSQAFVRIEGGSILNKSFINDHGMDTRQLHRAGAIMALFDAINIQPVYGDTKNEMIPNYQENTVSSSQFQDEALNINQLKSFYRITQSAASLQNLPETTPDESLFKLQLRRYQKQSLSWMLKREYEYSHLSEKAAEVSIDGNSMNPLWKKFRWPSNSKQGTPNHEDDCFFYANLYTGEFSIEKPVIKTIINGGILADEMGLGKTISALALICTASYDEAHEKKIESTKKPSMKEMSSQVDSSPLRHSQHKHDTYAYRTTLIVVPMSLLNQWQSEFEKANKDLKKRCEIYYGNNIKDLRAYVLGPNAPSVIITTYGIIQSEYGRTSTSGLFNVVFFRIILDEGHTIRNRSTRTSKAVIALRSSRKWILTGTPIINRLDDLFSLVQFLNLEPWSHINYWKRYVSVPFEKGNYAQAFDVINAVLEPVLLRRTKNMKDVDGKPLVSLPPKEVIVEKLQLSSSEKRVYQSMLEDAENSVKEGLAKGDLLKNYTNILVHILRLRQVCCHLDLLKKTPDLGDPDLEDLENSTQNISSILMPKNIKSPKSSISQDKLDALSANFRDIHSASEQLPSFECAICTTECIEPLSAVSITECLHTFCEPCLAEYIEFQQNKKLSINCPYCRMPISEANVLKLKEPIDAERGYELISFHSHFQSTKIKALLRHLKQIQETSPGEQIIVFSQFSSFLDILEIELRSHLPRDQVIIYKFDGRLDMKERTRILEQFHDKDLSCIKLLLLSLKTGGVGLNLTCASRAFMMDPWWSPGMEDQAIDRIHRIGQQQTVKVVRFIIDNSVEEKMLRIQERKRMLGDIVEGDEAERRQKRIEEIQMLFQ
– | binds | ScRad5 (S. cerevisiae Rad5), yeast two-hybrid fusion (protein, UniProt P32849 1-1169) MSHIEQEERKRFFNDDLDTSETSLNFKSENKESFLFANSHNDDDDDVVVSVSDTTEGEGDRSIVPVRREIEEEGQNQFITELLRIIPEMPKDLVMELNEKFGSQEEGLSLALSHYFDHNSGTSISKIPSSPNQLNTLSDTSNSTLSPSSFHPKRRRIYGFRNQTRLEDKVTWKRFIGALQVTGMATRPTVRPLKYGSQMKLKRSSEEISATKVYDSRGRKKASMASLVRIFDIQYDREIGRVSEDIAQILYPLLSSHEISFEVTLIFCDNKRLSIGDSFILQLDCFLTSLIFEERNDGESLMKRRRTEGGNKREKDNGNFGRTLTETDEELESRSKRLALLKLFDKLRLKPILDEQKALEKHKIELNSDPEIIDLDNDEICSNQVTEVHNNLRDTQHEEETMNLNQLKTFYKAAQSSESLKSLPETEPSRDVFKLELRNYQKQGLTWMLRREQEFAKAASDGEASETGANMINPLWKQFKWPNDMSWAAQNLQQDHVNVEDGIFFYANLHSGEFSLAKPILKTMIKGGILSDEMGLGKTVAAYSLVLSCPHDSDVVDKKLFDIENTAVSDNLPSTWQDNKKPYASKTTLIVVPMSLLTQWSNEFTKANNSPDMYHEVYYGGNVSSLKTLLTKTKTPPTVVLTTYGIVQNEWTKHSKGRMTDEDVNISSGLFSVNFYRIIIDEGHNIRNRTTVTSKAVMALQGKCKWVLTGTPIINRLDDLYSLVKFLELDPWRQINYWKTFVSTPFESKNYKQAFDVVNAILEPVLLRRTKQMKDKDGKPLVELPPKEVVIKRLPFSKSQDLLYKFLLDKAEVSVKSGIARGDLLKKYSTILVHILRLRQVCCHPGLIGSQDENDEDLSKNNKLVTEQTVELDSLMRVVSERFDNSFSKEELDAMIQRLKVKYPDNKSFQSLECSICTTEPMDLDKALFTECGHSFCEKCLFEYIEFQNSKNLGLKCPNCRNQIDACRLLALVQTNSNSKNLEFKPYSPASKSSKITALLKELQLLQDSSAGEQVVIFSQFSTYLDILEKELTHTFSKDVAKIYKFDGRLSLKERTSVLADFAVKDYSRQKILLLSLKAGGVGLNLTCASHAYMMDPWWSPSMEDQAIDRLHRIGQTNSVKVMRFIIQDSIEEKMLRIQEKKRTIGEAMDTDEDERRKRRIEEIQMLFE
– | no binding | ScRad5 R187E/R229E/R241E (Sc3RE), yeast two-hybrid fusion (protein, UniProt P32849 1-1169) MSHIEQEERKRFFNDDLDTSETSLNFKSENKESFLFANSHNDDDDDVVVSVSDTTEGEGDRSIVPVRREIEEEGQNQFITELLRIIPEMPKDLVMELNEKFGSQEEGLSLALSHYFDHNSGTSISKIPSSPNQLNTLSDTSNSTLSPSSFHPKRRRIYGFRNQTRLEDKVTWKRFIGALQVTGMATEPTVRPLKYGSQMKLKRSSEEISATKVYDSRGRKKASMASLVEIFDIQYDREIGEVSEDIAQILYPLLSSHEISFEVTLIFCDNKRLSIGDSFILQLDCFLTSLIFEERNDGESLMKRRRTEGGNKREKDNGNFGRTLTETDEELESRSKRLALLKLFDKLRLKPILDEQKALEKHKIELNSDPEIIDLDNDEICSNQVTEVHNNLRDTQHEEETMNLNQLKTFYKAAQSSESLKSLPETEPSRDVFKLELRNYQKQGLTWMLRREQEFAKAASDGEASETGANMINPLWKQFKWPNDMSWAAQNLQQDHVNVEDGIFFYANLHSGEFSLAKPILKTMIKGGILSDEMGLGKTVAAYSLVLSCPHDSDVVDKKLFDIENTAVSDNLPSTWQDNKKPYASKTTLIVVPMSLLTQWSNEFTKANNSPDMYHEVYYGGNVSSLKTLLTKTKTPPTVVLTTYGIVQNEWTKHSKGRMTDEDVNISSGLFSVNFYRIIIDEGHNIRNRTTVTSKAVMALQGKCKWVLTGTPIINRLDDLYSLVKFLELDPWRQINYWKTFVSTPFESKNYKQAFDVVNAILEPVLLRRTKQMKDKDGKPLVELPPKEVVIKRLPFSKSQDLLYKFLLDKAEVSVKSGIARGDLLKKYSTILVHILRLRQVCCHPGLIGSQDENDEDLSKNNKLVTEQTVELDSLMRVVSERFDNSFSKEELDAMIQRLKVKYPDNKSFQSLECSICTTEPMDLDKALFTECGHSFCEKCLFEYIEFQNSKNLGLKCPNCRNQIDACRLLALVQTNSNSKNLEFKPYSPASKSSKITALLKELQLLQDSSAGEQVVIFSQFSTYLDILEKELTHTFSKDVAKIYKFDGRLSLKERTSVLADFAVKDYSRQKILLLSLKAGGVGLNLTCASHAYMMDPWWSPSMEDQAIDRLHRIGQTNSVKVMRFIIQDSIEEKMLRIQEKKRTIGEAMDTDEDERRKRRIEEIQMLFE
